Results from paper PMC11904993, “Humanized Candida and NanoBiT Assays Expedite Discovery of Bdf1 Bromodomain Inhibitors With Antifungal Potential” (Advanced Science, 2025).
No constants are given. Whether binding was seen depends on the method and setting. Binding seen in cells or lysates may run through a third protein. Some entries that bind do so weakly or less than the wild type. For some assays here: Tags and fused reporters may be left off the sequences shown. Each block holds one molecule with its values, some of them ahead of it.

Protein sequences, listed by entry. Tags and fused reporters are not part of them.
UniProt P34730: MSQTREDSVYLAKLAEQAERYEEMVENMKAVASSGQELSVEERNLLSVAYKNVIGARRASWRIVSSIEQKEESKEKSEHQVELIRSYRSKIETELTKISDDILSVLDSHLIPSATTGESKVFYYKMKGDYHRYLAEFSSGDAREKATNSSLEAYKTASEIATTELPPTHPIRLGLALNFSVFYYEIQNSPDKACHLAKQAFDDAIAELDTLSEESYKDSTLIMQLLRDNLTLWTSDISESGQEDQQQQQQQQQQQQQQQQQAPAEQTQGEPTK
UniProt P29311: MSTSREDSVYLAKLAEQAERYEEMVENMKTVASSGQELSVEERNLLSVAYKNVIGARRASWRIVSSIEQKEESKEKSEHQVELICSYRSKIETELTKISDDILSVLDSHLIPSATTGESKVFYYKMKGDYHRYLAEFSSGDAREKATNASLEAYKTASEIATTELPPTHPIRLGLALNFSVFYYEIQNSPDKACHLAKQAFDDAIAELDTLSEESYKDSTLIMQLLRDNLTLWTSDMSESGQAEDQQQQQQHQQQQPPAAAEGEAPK

Assays:
[1] = biological target: S. cerevisiae Bmh2 (NanoBiT fusion) (S. cerevisiae) (UniProt P34730); test: split reporter; NanoBiT in live S. cerevisiae grown overnight at 30 °C in SC(MSG) with serial dilutions of 24c or I-BET726; luminescence normalised to the Bdf1/Swc4 and Bmh1/Bmh2 controls
[2] = biological target: T1, S. cerevisiae Swc4 (NanoBiT fusion) (S. cerevisiae) (UniProt P53201); test: as above
T1 sequence: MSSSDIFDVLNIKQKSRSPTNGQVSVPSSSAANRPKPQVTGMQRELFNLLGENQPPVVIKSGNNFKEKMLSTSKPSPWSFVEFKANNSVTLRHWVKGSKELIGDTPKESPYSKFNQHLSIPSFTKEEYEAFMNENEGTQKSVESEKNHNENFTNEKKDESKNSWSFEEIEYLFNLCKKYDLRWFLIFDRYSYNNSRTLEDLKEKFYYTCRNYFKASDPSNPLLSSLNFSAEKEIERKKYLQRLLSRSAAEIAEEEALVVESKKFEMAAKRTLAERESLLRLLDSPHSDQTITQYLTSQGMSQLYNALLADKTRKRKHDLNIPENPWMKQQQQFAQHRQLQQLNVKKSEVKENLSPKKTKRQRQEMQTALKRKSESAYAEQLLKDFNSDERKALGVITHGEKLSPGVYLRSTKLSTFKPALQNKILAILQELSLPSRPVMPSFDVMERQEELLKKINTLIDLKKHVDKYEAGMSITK

binding [1]: binds
Molecule: S. cerevisiae Bmh1 (NanoBiT fusion) (from UniProt P29311 1-267)

binding [2]: binds
B1: S. cerevisiae Bdf1-SmBiT (protein, UniProt P35817 1-686)
chain: MTDITPVQNDVDVNGNNVNDDVSSNLKRPIDQGDPSNGLAEEENPANNQLHLKKARLDGDALTSSPAGLAENGIEGATLAANGENGYNATGSGAEDEQQGLKKEEGGQGTKQEDLDENSKQELPMEVPKEPAPAPPPEPDMNNLPQNPIPKHQQKHALLAIKAVKRLKDARPFLQPVDPVKLDIPFYFNYIKRPMDLSTIERKLNVGAYEVPEQITEDFNLMVNNSIKFNGPNAGISQMARNIQASFEKHMLNMPAKDAPPVIAKGRRSSAQEDAPIVIRRAQTHNGRPKRTIHPPKSKDIYPYESKKPKSKRLQQAMKFCQSVLKELMAKKHASYNYPFLEPVDPVSMNLPTYFDYVKEPMDLGTIAKKLNDWQYQTMEDFERDVRLVFKNCYTFNPDGTIVNMMGHRLEEVFNSKWADRPNLDDYDSDEDSRTQGDYDDYESEYSESDIDETIITNPAIQYLEEQLARMKVELQQLKKQELEKIRKERRLARGSKKRGKRSKGRSGSKNASSKGRRDKKNKLKTVVTYDMKRIITERINDLPTSKLERAIDIIKKSMPNISEDDEVELDLDTLDNHTILTLYNTFFRQYESSSGASNGLDGTSGVTRDASSLSPTSAGSRKRRSKALSQEEQSRQIEKIKNKLAILDSASPLSQNGSPGQIQSAAHNGFSSSSDDDVSSESEEE
